We go through 65 compounds from PubChem BioAssay AID2685 (National Center for Advancing Translational Sciences (NCATS), 2010).

Some of the results follow. Further columns of the screen follow, without active or inactive calls. Compounds called inactive in the main read-out are mostly missing here. The note in brackets gives the kind of curve behind each potency; many fits are weak.

This test can be described thus: qHTS Assay for Lipid Storage Modulators in Drosophila S3 Cells.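 On cell number change: cells counted by Cell Tracker Red CMTPX staining in the red channel.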 To be noted: BODIPY lipid droplet fluorescence, 18-24 h; for cell number change: measured here: cell count max response, cells fed with added oleic acid. The procedure, abridged:
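Laser-scanning cytometry quantifies lipid droplet accumulation (500–530 nm total intensity; droplet/cell object ratio) in oleic acid-fed (400 uM added) Drosophila S3 cells treated with a concentration series. 20 uM Triacsin C defined 100% inhibition.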

The mark [1] stands for this setting: measured here: cell number channel AC50, cells fed with added oleic acid.
Where [2] appears, read: measured here: lipid fluorescence (Fed channel) AC50, cells fed with added oleic acid.

As to `O=C(CCCN1C(=O)/C(=C\c2ccco2)SC1=S)Nc1cccc2ccccc12`, the cell number change was found to be 20.9%.
Consider `O=C(N/N=C/c1cccnc1)c1cc(-c2cccs2)nc2ccccc12`, for which the cell number change is 27.8%.
On to `FC(F)(F)Oc1ccc(Nc2nc3ccccc3o2)cc1`, for which the cell number change was -37.3%. Also, the half-maximal activity concentration (AC50) under setting [1] is 13 µM [falling, partial curve]. Further, the half-maximal activity concentration (AC50) under setting [2] was 32.6 µM [falling, single point].
Turning to `Oc1ccccc1C=NCCN=Cc1ccccc1O`, the cell number change was 14.8%.
Turning to `COc1cccc2c(=O)c(SC(F)(F)C(F)C(F)(F)F)c(C)[nH]c12` (stereo not given), the cell number change is -4.76%. Besides, the AC50 under setting [2] was 0.82 µM [rising, partial curve, poor fit].
In the case of `O=c1[nH]c(/C=C\c2cccc(F)c2)nc(O)c1[N+](=O)[O-]`, the cell number change came to 3.23%.
On to `Cc1ccc(-c2nnc(N3CCOCC3)c3ccccc23)cc1S(=O)(=O)N(C)C`, for which the cell number change was 18.1%. Under setting [1], the AC50 is 0.116 µM [rising, full curve, poor fit].
For `O/C(=C\Sc1nnc(Cc2ccccc2)o1)c1ccc(F)cc1`, the cell number change was -6.94%. The concentration at half-maximal activity (AC50) under setting [2] was 6.51 µM [rising, single point].
On to `CCOC(=O)C1CCCN(C(=O)c2ccc3c(c2)N(C)C(=O)/C(=C/c2ccccc2Cl)S3)C1` (stereo not given), for which the cell number change was -9.44%. The AC50 under setting [1] is 2.31 µM [falling, partial curve]. The AC50 under setting [2] is 1.84 µM [falling, partial curve].
On to `CC(=O)c1c(C)[nH]c(C(=O)COc2cc(C)ccc2C(C)C)c1C`, for which the cell number change is -22.2%. Also, the AC50 under setting [1] is 1.16 µM [falling, partial curve, poor fit]. For the same compound, the AC50 under setting [2] is 0.58 µM [falling, partial curve].
As to `CCOC(=O)C1(Cc2cccc(OC)c2)CCN(C/C=C/c2ccc(OC)cc2)CC1`, the cell number change was -41%. For the same compound, the half-maximal activity concentration (AC50) under setting [1] was 25.9 µM [falling, single point]. Besides, the AC50 under setting [2] is 29.1 µM [falling, single point].
As for `CCOc1ccc(OCCC(=O)OC(C)C(=O)Nc2ccc(Cl)cn2)cc1` (stereo not given), the AC50 under setting [2] is 16.4 µM [falling, single point].
As to `COc1cc(C(=O)OCC(=O)NC(=O)c2cccn2C)ccc1OC(F)F`, the cell number change was found to be 12.5%. For the same compound, the AC50 under setting [1] is 0.116 µM [falling, full curve, poor fit].
With `CCOc1ccccc1CN1CCNC(=O)C1CC(=O)NCc1ccccn1` (stereo not given), the cell number change was -17.1%.
Take `Cc1cc(C)c2c3c(sc2n1)C1(CCSCC1)C(C#N)=C(N)O3`: the cell number change was -39.4%. For the same compound, the AC50 under setting [1] is 18.4 µM [falling, single point].
Consider `CCc1ccc(OCCCCN(C)Cc2ccccc2)cc1`, for which the cell number change turned out to be 2.93%.
On to `O=C(c1cccc([N+](=O)[O-])c1)N1CCN(c2ncccn2)CC1`, for which the cell number change came to 34.1%. The AC50 under setting [1] was 29.1 µM [rising, single point]. Also, the half-maximal activity concentration (AC50) under setting [2] is 29.1 µM [rising, single point].
Take `COc1ccccc1NC(=O)COc1ccccc1C(=O)Nc1ccccc1`: the cell number change amounted to 16.6%.
Consider `COc1ccc(/C=N/N=C/c2ccc(OC)cc2)cc1`, for which the cell number change is 65.5%. Also, under setting [1], the AC50 is 29.1 µM [rising, single point].
With `CN1CC2(C(=O)c3ccccc3)CN(C)CC(C(=O)c3ccccc3)(C1)C2`, the cell number change is -14.8%. For the same compound, the AC50 under setting [2] was 1.84 µM [falling, partial curve].
As to `C/C(=N/NC(=O)CNS(=O)(=O)c1ccc(C)cc1)c1cccc([N+](=O)[O-])c1`, the cell number change stood at 35%. For the same compound, the half-maximal activity concentration (AC50) under setting [1] was 1.03 µM [rising, full curve].
With `O=c1c2sccc2nc(SCc2ccc([N+](=O)[O-])cc2)n1Cc1ccccn1`, the AC50 under setting [2] was 0.58 µM [rising, full curve].
With `COc1ccc(Br)cc1CNC(=O)CCc1nc(-c2ccccc2F)no1`, the cell number change is 17.7%. Further, the AC50 under setting [1] is 0.731 µM [rising, full curve, poor fit].
On to `CCOc1ccc(CNC(=O)c2ccc3nc(N4CCOCC4)sc3c2)cc1`, for which the cell number change came to 20.1%.
In the case of `NC1=NC(=O)/C(=C\c2ccco2)S1`, the cell number change was -16.6%. The AC50 under setting [2] is 0.291 µM [falling, partial curve, poor fit].
Consider `Cc1ccc(C)c(NC(=O)Cc2nc(CCl)cs2)c1`, for which the cell number change is -18.3%. Further, the AC50 under setting [1] is 0.103 µM [falling, full curve, poor fit].
As for `O=C1c2ccsc2SCCN1Cc1ccccc1Cl`, the cell number change was -4.06%.
Take `O=C1c2c(O)cccc2C(C2OC(CO)[C@@H](O)[C@H](O)[C@H]2O)c2cc(CO)cc(O)c21` (stereo not given in full): the cell number change is -58.6%. Moreover, the AC50 under setting [1] was 29.1 µM [falling, single point].
Take `CC(=O)Nc1ccc(S(=O)(=O)NCc2ccc(C(=O)N3CCOCC3)cc2)cc1`: the AC50 under setting [2] was 0.116 µM [rising, single point].
Take `Cc1ccc(-c2nn(C)c(=O)c3ccccc23)cc1CNS(C)(=O)=O`: the cell number change was -10.9%.
In the case of `O=C(NCCS(=O)(=O)N1CCN(c2ccc(F)cc2)CC1)c1ccc2c(c1)OCO2`, under setting [1], the AC50 was 2.91 µM [rising, partial curve, poor fit].
Take `CC1=C(C#N)C(=O)NC(=O)/C1=C\c1ccc(-c2cc(C)c(C)cc2[N+](=O)[O-])o1`: the cell number change came to 15.6%.
On the same count and under the same terms, in the case of `COc1ccc(C(=O)Cn2cnc3ccc(Cl)cc3c2=O)cc1F` it was 15.3%.
Turning to `COc1ccc(-n2nc3c(N4CCC(C(=O)N5CCC(C)CC5)CC4)nnc(C)c3c2C)cc1`, the cell number change was 5.51%. Besides, the concentration at half-maximal activity (AC50) under setting [1] was 1.64 µM [rising, partial curve, poor fit]. Moreover, the AC50 under setting [2] was 29.1 µM [falling, single point].
For `CCOC(=O)c1snc(C(=O)NC2CCCCC2)c1N`, the cell number change is -11.9%.
Consider `O=C(C1=C(O)C(=O)N(CCN2CCOCC2)C1c1ccc(F)cc1)c1cccs1` (stereo not given), for which, under setting [2], the AC50 was 29.1 µM [falling, single point].
As for `CC(C)c1ccc(NC(=O)C2CCCN(S(=O)(=O)c3cnc[nH]3)C2)cc1` (stereo not given), the cell number change came out at 12.8%. For the same compound, the AC50 under setting [2] is 2.31 µM [rising, single point].
Regarding `O=C(NCc1ccccc1CN1CCCC1)C1CCN(S(=O)(=O)c2ccc(F)c(F)c2)CC1`, the cell number change was -10.8%. In addition, the AC50 under setting [2] is 3.66 µM [falling, full curve].
As to `CC(=O)NCCN1C(=O)S/C(=C\c2cccs2)C1=O`, the cell number change is -6%.
Consider `CCOc1ccc(N(CC(=O)NC2CCCC2)C(=O)c2ccc(C)s2)cc1`, for which the cell number change was 2.94%. For the same compound, the AC50 under setting [2] was 0.231 µM [rising, partial curve, poor fit].
`CCCCSc1nc(O)c(Cc2ccccc2)c(=O)[nH]1`: the cell number change was 10.9%. The AC50 under setting [2] is 29.1 µM [rising, single point].
As to `O=C(Cc1csc(Nc2nc(=S)[nH]c3ccccc23)n1)NCc1ccccc1Cl`, the cell number change was -8.62%. In addition, the AC50 under setting [2] was 0.326 µM [falling, full curve, poor fit].
Regarding `C=CCn1cc(C(=O)OC)c(=O)c2cc(S(=O)(=O)N(CC)CC)ccc21`, the cell number change is -15.9%. Under setting [2], the AC50 was 3.66 µM [falling, partial curve].
For the compound `C=CCSc1ncc(-c2ccccc2)cn1`, the cell number change came out at 1.96%. The half-maximal activity concentration (AC50) under setting [1] is 6.51 µM [falling, single point]. For the same compound, the AC50 under setting [2] is 6.51 µM [falling, single point].
As for `CCNC(=S)NNC(=O)Cn1nc(C)cc1C`, the cell number change came out at 18.1%.
`Cc1ccc2[nH]c(-c3ccccc3)c(CN3CCOCC3)c(=O)c2c1`: the cell number change is -2.8%. In addition, under setting [2], the concentration at half-maximal activity (AC50) is 0.651 µM [falling, full curve].
Consider `Cc1cc(C)c(CSc2ncc(-c3ccc([N+](=O)[O-])cc3)[nH]2)c(C)c1`, for which the cell number change was -30.5%. The half-maximal activity concentration (AC50) under setting [1] is 29.1 µM [falling, single point]. The AC50 under setting [2] was 29.1 µM [falling, single point].
For the compound `Cc1nc(-c2cn[nH]c2)c2cc(C)oc2n1`, the cell number change is -33.6%. Besides, under setting [1], the AC50 was 23.1 µM [falling, partial curve, poor fit].
Consider `CCc1cc(C(=O)c2ccc(OC)cc2)c(NC(=O)CN2CCCC2)s1`, for which the cell number change was -5.57%.
`CN(C)c1ccc(C(=S)Nc2ccccc2)cc1`: the cell number change came out at 31.7%. For the same compound, the AC50 under setting [1] was 11.6 µM [rising, partial curve, poor fit].
On to `COCCN(CCOC)S(=O)(=O)c1ccc(C(=O)Nc2nc(C)c(C(C)=O)s2)cc1`, for which the cell number change is -1.49%.
In the case of `Cc1cc(C)c2cc(C(=O)N3CCC(N4CCCCC4)CC3)[nH]c2c1`, the cell number change stood at 37.8%. Moreover, the AC50 under setting [1] was 18.4 µM [rising, partial curve, poor fit]. Moreover, the AC50 under setting [2] was 6.51 µM [rising, single point].
In the case of `COC(=O)[C@@H]1CCCN1Cc1c(C(=O)N2CCCCC2)nc2c(C)cccn12`, the cell number change is 14.3%.
Turning to `CC(=O)C1=C(O)C(=O)N(c2cc(C(C)(C)C)on2)C1c1ccc(C(C)C)cc1` (stereo not given), the cell number change was -14.9%. For the same compound, the AC50 under setting [2] is 0.0326 µM [falling, full curve, poor fit].
Take `CC1CC(C)CN(C(=S)NC2CCCCC2)C1` (stereo not given): the cell number change stood at 3.44%. Further, the AC50 under setting [2] is 16.4 µM [falling, partial curve, poor fit].
For `CCc1ccc(-c2cc(C)no2)cc1S(=O)(=O)NC(C)Cc1ccco1` (stereo not given), the cell number change was -20.9%.
The same measure, in the same setting: in the case of `O=C(Nc1ccccc1)C1CC(=O)N(C2CCCCC2)C1` (stereo not given) it was 17.3%.
In the case of `CC(C)Sc1nc(N2CCCC2)c2c(c1C#N)CC(C)(C)OC2`, the cell number change was -39.3%. In addition, under setting [1], the concentration at half-maximal activity (AC50) is 29.1 µM [falling, single point]. In addition, the AC50 under setting [2] was 6.51 µM [rising, single point].
Regarding `C/C=C(\C)CN1CCC(n2nccc2NC(=O)CCCc2ccccc2)CC1`, the cell number change was -0.867%. For the same compound, the AC50 under setting [2] is 16.4 µM [rising, partial curve, poor fit].
Consider `COc1ccc(CCNC(=S)N2CCC(C(N)=O)CC2)cc1`, for which the cell number change is -20.1%.
On to `Cc1cc(C(=O)OCC(=O)N2c3ccccc3CC2C)c(C)o1` (stereo not given), for which the cell number change is 64.1%. In addition, the AC50 under setting [1] is 2.06 µM [rising, full curve]. Further, the AC50 under setting [2] was 23.1 µM [rising, single point].
In the case of `CC1(C)Cc2c(sc(/N=C/N3CCOCC3)c2C#N)C(C)(C)N1`, the cell number change is -75.7%. Moreover, the AC50 under setting [1] is 29.1 µM [falling, single point].
Regarding `CCCC(=O)Nc1c2c(nn1-c1cccc(Cl)c1)CS(=O)(=O)C2`, the cell number change was -2.45%. The concentration at half-maximal activity (AC50) under setting [2] is 18.4 µM [rising, single point].
In the case of `COc1ccc(CCNC(=O)c2cccs2)cc1OC`, the cell number change was -22.6%. Also, the AC50 under setting [2] was 0.092 µM [falling, full curve].
For `Cc1ccc2cc3c(NC(=O)c4ccco4)nn(C)c3nc2c1`, the cell number change was -21.1%. Moreover, the AC50 under setting [2] was 8.2 µM [falling, partial curve].

Broadly, the AC50 is the concentration giving half of the maximal activity seen. High values mean weaker potency, low ones greater potency.
